For one substance, binding results are on record in doi:10.1101/2022.11.04.515170.

Assay [1] addresses T1, mCherry-SNX6 (UniProt Q9UNH7).
T1 sequence: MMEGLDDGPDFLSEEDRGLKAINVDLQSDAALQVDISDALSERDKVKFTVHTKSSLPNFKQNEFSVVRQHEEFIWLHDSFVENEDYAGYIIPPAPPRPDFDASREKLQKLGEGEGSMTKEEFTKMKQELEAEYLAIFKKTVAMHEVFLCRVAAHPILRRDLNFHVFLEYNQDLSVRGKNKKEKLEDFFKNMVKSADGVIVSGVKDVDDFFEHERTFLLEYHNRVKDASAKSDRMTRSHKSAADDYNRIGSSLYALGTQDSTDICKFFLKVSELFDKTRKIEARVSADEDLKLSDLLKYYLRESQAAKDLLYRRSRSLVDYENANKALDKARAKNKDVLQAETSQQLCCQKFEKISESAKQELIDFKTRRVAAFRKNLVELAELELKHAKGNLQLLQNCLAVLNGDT
The assay can be described thus: co-IP.

The target in assay [2] is T2, GFP-SNX32 WT (UniProt Q86XE0).
T2 sequence: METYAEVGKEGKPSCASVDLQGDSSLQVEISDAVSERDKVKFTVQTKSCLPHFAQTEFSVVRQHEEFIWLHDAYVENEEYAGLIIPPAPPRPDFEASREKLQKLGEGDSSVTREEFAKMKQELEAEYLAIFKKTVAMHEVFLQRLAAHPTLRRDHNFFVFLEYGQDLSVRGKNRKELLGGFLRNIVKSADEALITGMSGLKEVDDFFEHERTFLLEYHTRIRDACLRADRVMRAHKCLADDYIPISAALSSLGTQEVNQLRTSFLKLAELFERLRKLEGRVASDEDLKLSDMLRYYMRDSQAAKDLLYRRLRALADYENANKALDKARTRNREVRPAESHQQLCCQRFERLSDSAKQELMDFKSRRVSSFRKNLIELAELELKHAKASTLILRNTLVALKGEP
Briefly: co-IP.

The target in assay [3] is T3, mCherry-SNX32 (UniProt Q86XE0).
T3 sequence: T2 sequence
Briefly: co-IP.

Assay [4] addresses T4, His-SNX32ΔC (UniProt Q86XE0).
T4 sequence: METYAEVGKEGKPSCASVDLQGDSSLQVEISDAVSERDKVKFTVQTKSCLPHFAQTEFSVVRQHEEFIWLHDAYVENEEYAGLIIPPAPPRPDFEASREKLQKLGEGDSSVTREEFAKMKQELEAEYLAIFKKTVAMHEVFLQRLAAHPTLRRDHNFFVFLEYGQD
The assay can be described thus: pull-down.

Results are given in words; binding and its absence hold for the method and conditions named. In cells and extracts the contact can be indirect. For some of these results: Binding calls can cover weak binding; strength is not graded here. For some of these results: Where a sequence is shown, tags or fusion partners need not be part of it.

On to “Basigin (from UniProt P35613-2) (receptor)”, for which the binding result was “no binding” in assay [1], “binds” in assay [2], “binds” in assay [3] and “binds” in assay [4].
